From paper doi:10.1101/2023.06.23.544932
These are yes or no findings as the source states them, for the method shown. For some of these results: In cells and extracts the contact can be indirect. Some binding calls cover weakened binding; strength is not graded here.

Sequences of proteins named here, by UniProt entry; tags and fusion partners are left off. A change or cut given only in a name is not applied to a line headed by its entry. Residues count along the entry.
UniProt Q8S307: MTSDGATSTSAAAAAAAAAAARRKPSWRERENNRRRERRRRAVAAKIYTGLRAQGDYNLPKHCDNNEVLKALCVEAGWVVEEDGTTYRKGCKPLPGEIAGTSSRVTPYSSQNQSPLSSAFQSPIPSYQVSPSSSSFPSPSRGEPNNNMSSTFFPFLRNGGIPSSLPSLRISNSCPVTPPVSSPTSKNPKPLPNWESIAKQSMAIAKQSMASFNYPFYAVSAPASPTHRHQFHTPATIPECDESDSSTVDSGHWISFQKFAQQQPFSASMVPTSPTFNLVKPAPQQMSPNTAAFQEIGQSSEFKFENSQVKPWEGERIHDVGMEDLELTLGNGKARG
N-terminal domain of BZR1 (amino acids 1-109), yeast two-hybrid fusion: residues 1-109 of Q8S307
UniProt Q6EVK6: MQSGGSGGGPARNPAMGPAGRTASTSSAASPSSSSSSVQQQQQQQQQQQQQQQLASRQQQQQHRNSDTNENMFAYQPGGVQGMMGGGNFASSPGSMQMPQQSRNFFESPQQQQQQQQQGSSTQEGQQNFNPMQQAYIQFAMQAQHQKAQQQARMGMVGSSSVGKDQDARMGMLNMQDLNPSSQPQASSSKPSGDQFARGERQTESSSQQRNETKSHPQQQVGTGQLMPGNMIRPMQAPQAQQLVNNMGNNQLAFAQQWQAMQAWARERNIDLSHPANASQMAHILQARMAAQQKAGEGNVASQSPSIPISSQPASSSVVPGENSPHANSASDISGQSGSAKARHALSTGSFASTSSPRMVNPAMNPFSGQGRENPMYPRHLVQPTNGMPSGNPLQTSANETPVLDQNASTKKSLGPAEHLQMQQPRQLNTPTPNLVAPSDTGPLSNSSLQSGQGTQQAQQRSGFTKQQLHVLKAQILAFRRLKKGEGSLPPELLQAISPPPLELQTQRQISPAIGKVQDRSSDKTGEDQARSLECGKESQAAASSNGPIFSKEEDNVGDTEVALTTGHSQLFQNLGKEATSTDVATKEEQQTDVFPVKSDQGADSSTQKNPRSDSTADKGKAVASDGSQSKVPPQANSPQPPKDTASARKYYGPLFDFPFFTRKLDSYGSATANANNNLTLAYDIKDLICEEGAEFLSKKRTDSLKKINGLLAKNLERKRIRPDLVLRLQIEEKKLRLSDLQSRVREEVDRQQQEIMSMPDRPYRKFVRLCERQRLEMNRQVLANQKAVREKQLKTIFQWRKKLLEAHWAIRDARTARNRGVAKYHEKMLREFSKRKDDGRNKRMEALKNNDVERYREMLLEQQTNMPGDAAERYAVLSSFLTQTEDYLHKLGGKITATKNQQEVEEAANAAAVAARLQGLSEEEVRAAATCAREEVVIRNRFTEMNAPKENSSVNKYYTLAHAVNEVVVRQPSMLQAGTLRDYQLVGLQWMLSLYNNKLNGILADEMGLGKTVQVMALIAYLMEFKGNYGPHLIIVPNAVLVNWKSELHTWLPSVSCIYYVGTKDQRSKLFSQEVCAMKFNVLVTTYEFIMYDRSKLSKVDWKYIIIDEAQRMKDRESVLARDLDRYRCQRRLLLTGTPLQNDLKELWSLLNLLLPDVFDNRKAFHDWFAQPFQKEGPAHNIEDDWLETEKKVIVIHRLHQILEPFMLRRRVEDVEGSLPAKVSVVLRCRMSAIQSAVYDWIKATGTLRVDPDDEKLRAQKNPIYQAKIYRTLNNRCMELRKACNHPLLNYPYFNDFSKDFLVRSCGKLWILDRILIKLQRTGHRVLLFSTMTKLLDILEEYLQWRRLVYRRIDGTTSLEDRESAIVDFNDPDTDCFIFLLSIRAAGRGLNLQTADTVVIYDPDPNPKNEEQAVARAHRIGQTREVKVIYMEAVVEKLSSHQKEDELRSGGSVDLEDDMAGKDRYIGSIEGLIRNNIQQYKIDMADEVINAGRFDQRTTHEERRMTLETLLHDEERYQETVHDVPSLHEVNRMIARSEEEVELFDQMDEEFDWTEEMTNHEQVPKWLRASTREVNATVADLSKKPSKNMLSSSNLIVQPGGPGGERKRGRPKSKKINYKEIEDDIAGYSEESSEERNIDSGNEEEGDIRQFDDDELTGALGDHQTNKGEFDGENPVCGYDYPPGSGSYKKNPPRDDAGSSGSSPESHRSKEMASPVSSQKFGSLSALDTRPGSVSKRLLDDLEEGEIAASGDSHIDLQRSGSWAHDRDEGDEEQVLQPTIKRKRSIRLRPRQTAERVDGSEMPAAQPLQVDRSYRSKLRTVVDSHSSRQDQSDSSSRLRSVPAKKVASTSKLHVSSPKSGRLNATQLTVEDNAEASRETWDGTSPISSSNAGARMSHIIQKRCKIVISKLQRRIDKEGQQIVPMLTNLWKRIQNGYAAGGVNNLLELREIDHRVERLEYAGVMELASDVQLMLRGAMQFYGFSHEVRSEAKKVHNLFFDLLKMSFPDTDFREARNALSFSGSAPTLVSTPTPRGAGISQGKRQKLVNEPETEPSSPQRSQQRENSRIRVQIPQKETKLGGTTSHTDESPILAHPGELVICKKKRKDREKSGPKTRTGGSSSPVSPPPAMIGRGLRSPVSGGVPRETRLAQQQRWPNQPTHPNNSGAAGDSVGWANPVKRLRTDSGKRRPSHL

Experiments:
[1] = molecular target: BZR1-3xFLAG (Arabidopsis thaliana) (UniProt Q8S307); assay: co-IP
[2] = molecular target: BZR1-HA (Arabidopsis thaliana) (UniProt Q8S307); assay: co-IP
[3] = molecular target: N-terminal YFP-fused BZR1 (Arabidopsis thaliana) (UniProt Q8S307); assay: split reporter
[4] = molecular target: N-terminal domain of BZR1 (amino acids 1-109), yeast two-hybrid fusion (Arabidopsis thaliana) (UniProt Q8S307); assay: two-hybrid

BRM-GFP (from UniProt Q6EVK6 1-2193)
binding [1]: binds

BRM-N-GFP (BRM N terminal, 1-952 amino acids) (from UniProt Q6EVK6 1-952) (domain or fragment)
binding [2]: binds

C-terminal YFP-fused BRM (from UniProt Q6EVK6 1-2193)
binding [3]: binds

N-terminal part of BRM (amino acids 1-952), yeast two-hybrid fusion (from UniProt Q6EVK6 1-952) (domain or fragment)
binding [4]: binds
